Data as given in PubChem BioAssay AID1259308 (NCATS, 2017).
Test: 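Genes whose loss raises luciferase production in HEK293 cells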 (primary screen). Cells: human HEK293 embryonic kidney cells stably expressing firefly luciferase (HEK-CMV-Luc2-Hygro). Reagents: single siRNA against human genes, 0.8 pmol siRNA per well. Timing: 72 h. Measurement: 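Luciferase light (ONE-Glo) measured on one replicate plate set and viability (CellTiter-Glo) on the other, scaled to a negative control siRNA, with robust z-scores and luciferase per cell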. Direction: total luciferase, z-score and total luciferase, % of control: higher = more reporter protein produced. Hit rule: 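Active when the median/MAD z-score for overall luciferase is greater than 3; a gene was taken forward for validation with new siRNAs if at least two of its three siRNAs passed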. Calls: active = raised luciferase; inactive = no rise.
Here is a random part of about 59,000 reagents. About 1,510 of all reagents (2.6%) count as active. 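Calls use total luciferase alone and ignore viability, so some active siRNAs may act by altering cell number.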 Reagents against one gene are numbered here. Not all columns of the deposit are shown.

Target gene | reagent | total luciferase, z-score | total luciferase, % of control | activity call
AMPD1 (GeneID 270) | 1 | 0.366 | 89.2 | inactive
AMPD1 (GeneID 270) | 2 | 0.818 | 98.2 | inactive
AMPD1 (GeneID 270) | 3 | -1.53 | 51.4 | inactive
KRT25 (GeneID 147183) | 1 | -0.618 | 69.6 | inactive
KRT25 (GeneID 147183) | 2 | -0.0864 | 80.2 | inactive
KRT25 (GeneID 147183) | 3 | 2.4 | 130 | inactive
C3orf36 (GeneID 80111) | 1 | 0.864 | 99.1 | inactive
C3orf36 (GeneID 80111) | 2 | 0.442 | 90.7 | inactive
C3orf36 (GeneID 80111) | 3 | -0.349 | 74.9 | inactive
RASGRF2 (GeneID 5924) | 1 | -0.228 | 77.3 | inactive
RASGRF2 (GeneID 5924) | 2 | 0.489 | 91.6 | inactive
RASGRF2 (GeneID 5924) | 3 | -1.68 | 48.4 | inactive
MAMSTR (GeneID 284358) | 1 | -0.894 | 64.1 | inactive
MAMSTR (GeneID 284358) | 2 | 3.53 | 152 | active
MAMSTR (GeneID 284358) | 3 | -0.959 | 62.8 | inactive
BCL2L2 (GeneID 599) | 1 | 1.93 | 120 | inactive
BCL2L2 (GeneID 599) | 2 | 0.259 | 87 | inactive
BCL2L2 (GeneID 599) | 3 | -0.17 | 78.5 | inactive
SBF1 (GeneID 6305) | 1 | -0.99 | 62.2 | inactive
SBF1 (GeneID 6305) | 2 | 0.826 | 98.3 | inactive
SBF1 (GeneID 6305) | 3 | 1.59 | 114 | inactive
ST6GALNAC2 (GeneID 10610) | 1 | -0.216 | 77.6 | inactive
ST6GALNAC2 (GeneID 10610) | 2 | 0.00182 | 81.9 | inactive
ST6GALNAC2 (GeneID 10610) | 3 | -1.46 | 52.8 | inactive
SRA1 (GeneID 10011) | 1 | -0.5 | 71.9 | inactive
SRA1 (GeneID 10011) | 2 | -0.816 | 65.7 | inactive
SRA1 (GeneID 10011) | 3 | 0.0303 | 82.5 | inactive
REPS2 (GeneID 9185) | 1 | 0.288 | 87.6 | inactive
REPS2 (GeneID 9185) | 2 | -0.0603 | 80.7 | inactive
REPS2 (GeneID 9185) | 3 | -1.61 | 50 | inactive
PRXL2CP1 (GeneID 650181) | 1 | -0.13 | 79.3 | inactive
PRXL2CP1 (GeneID 650181) | 2 | -0.802 | 65.9 | inactive
PRXL2CP1 (GeneID 650181) | 3 | -0.792 | 66.1 | inactive
ANGPT2 (GeneID 285) | 1 | -0.201 | 77.9 | inactive
ANGPT2 (GeneID 285) | 2 | -0.928 | 63.4 | inactive
ANGPT2 (GeneID 285) | 3 | 0.455 | 90.9 | inactive
ZNF2 (GeneID 7549) | 1 | -0.928 | 63.4 | inactive
ZNF2 (GeneID 7549) | 2 | -1.18 | 58.3 | inactive
ZNF2 (GeneID 7549) | 3 | -0.888 | 64.2 | inactive

Single entries from the entries so far:
SRA1 (GeneID 10011) #3, activity call = inactive
Entry for BCL2L2 (GeneID 599) #1 in “activity call”: inactive
For “total luciferase, z-score”, RASGRF2 (GeneID 5924) #2 has 0.489
BCL2L2 (GeneID 599) #2, activity call = inactive
Value of SBF1 (GeneID 6305) #3 in “activity call”: inactive
Result for C3orf36 (GeneID 80111) #2 under “total luciferase, z-score”: 0.442
